# Out of some 53,000 sequences screened, about 3,700 (7%) were called active.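 The calls were made as follows: active = gene knockdowns whose robust z-score for IL-1 alpha signal is at least 2 or at most -2, so actives lie on both sides; inactive = the rest.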 The list shows a part of the results.
# Assay: Components of the Cytosolic LPS Sensing Pathway: Gene Identification via Genome-wide siRNA Screen;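 also: robust z of the log signal after scaling to non-targeting control siRNA wells of the plate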
# Settings: RAW264.7 macrophages, IL-1a HTRF, actives lie on both sides, screened at 100 nM (by protocol), cells primed 5 h with Pam3CSK4 first
# Outline: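 Knockdown: 100 nM siRNA, 48h, RAW264.7. Stimulation: Pam3CSK4 5 h, then LipidA via TransIT-TKO 24 h. Output: supernatant IL-1a HTRF, negative-control-normalized, log robust z-score; viability by CellTiter-Glo.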
row,Sequence,z-score
1,GGAAAGGAAAAUCAACUUCTT against Usp14,inactive: 0.0989
2,GGGAUUUGUUGUCUAAGAUTT against Mapk10,inactive: -0.54
3,GGCCUAUGGAUUUGACUUCTT against Mrpl28,inactive: 0.131
4,GGCAAACAUGGAAUACACCTT against Gabrd,inactive: 1.01
5,GGCCACUCUUCUAGUGCAUTT against Tmem39b,inactive: 1.27
6,GGUUCUUCAGGACAAUGUGTT against Edem2,inactive: 0.669
7,GGUCAAUGGAAUGAAAACCTT against Ptprc,inactive: 0.217
8,GGCACUUUGUUCUAGCAGCTT against Pcdhb21,inactive: 0.959
9,CCUACUGCAUUAAAAAACUTT against Lactb2,inactive: -1.17
10,GUUCAAGACGGAGAAGAGGTT against Gpr27,active: 3.03
11,CCCAGCUAGACAGUCUUUCTT against Il11,active: 2.58
12,CCGACUAUCUAUCUACUGATT against Agxt2,inactive: 0.0442
13,GCUUCUUCCUUAGAUGGCATT against Kcnb1,inactive: -1.32
14,GCAUCUGAAAAUCCUCAACTT against Cxcl12,inactive: -1.21
15,CCCUCAAAACCUUAAUGGGTT against B3galt1,inactive: -0.223
16,GGCCCUACAAACUAUUAACTT against Impa2,inactive: 1.24
17,CGCACUGAAGGGAUGCGAUTT against Dyrk2,inactive: 0.646
18,GCAGUAUACUUUUGUGAAUTT against Plxna2,inactive: -0.0681
19,GGCUGUGGAUCUCCUAUCATT against Rnf144b,inactive: -0.881
20,GGCUAUCUUCAAUAUACUGTT against Lamp3,inactive: 0.471
21,GGAAGAAUCUGAUUCGUAATT against Snapc5,inactive: -1.28
22,CGACCCUAAGAAGAAUUUUTT against Nsdhl,inactive: 1.73

row,Sequence,z-score
1,GGCUUCAUUCUUGUCCUCCTT against Reg3b,inactive: -0.105
2,GGAGCAGUGAUGGAGAAUATT against C230012O17Rik,inactive: 0.324
3,GGGAUCUCCAUACUCUCCUTT against Prima1,inactive: 0.242
4,GGGUGAUGCCCUUGAAUCUTT against Twf2,active: 2.48
5,GCCCUUCGCUUAAAGACCATT against Mecr,inactive: 0.148
6,GGAUCUGACAAGGUACAAGTT against Acsm5,inactive: 0.145
7,GGAAAAAAAAGGAUUUCUCTT against Pnkp,inactive: 1.21
8,GGAACUGUGUGUCUUCUCCTT against Kcns3,inactive: -1.78
9,GGGAAAAGAGCUUGUCCGATT against Phf8-ps,inactive: -0.795
10,GCUGUAACCAACAUACCUCTT against Inka1,inactive: -0.91
11,GGAAGAACUGUCAAAGAAATT against Cd3g,inactive: -0.316
12,GGUGUUCGACGUGACCAAATT against Pgrmc1,inactive: 0.613
13,GCUGUUUAAUCUGUUAUGCTT against Rps17,inactive: 0.502
14,GGCAAAGAAAACAUCAGAGTT against Lap3,inactive: 0.296
15,CCUCUCUAGGCUAUAACUATT against Arhgap23,inactive: 0.521
16,GGCUUCUUUAUGUUUCCUUTT against Usp48,inactive: -1.46
17,CCUCAAUUUCGAAGACCCUTT against Asb6,inactive: 1.84
18,GGCUGAUGUGAUGAUUGUATT against Ndufs7,active: 2.3
19,GGAGAUCCACCUUUUCAAATT against Fap,inactive: -0.0456
20,GGCAAAUCCUCAAAGAUGUTT against Abcg5,inactive: -0.434
21,GGGCAACAGCUUCCAUAAATT against Csrp1,inactive: 1.09
22,GGAUGUGAUCCUCUGUUGCTT against Pcif1,inactive: -0.843

row,Sequence,z-score
1,CCUAUGAGUCUUACGUGAATT against Cyp4x1,inactive: 0.693
2,GGUUUUUUUUUCCAGUCCATT against Stam2,inactive: -1.05
3,GACCAUCUCCUUUACGGGCTT against Olfr71,inactive: 0.133
4,GGCUCUUAACUAUGAAAUATT against Apcs,inactive: -0.476
5,GGUAAGCAUGGAAAGGCUGTT against Prdm15,inactive: -0.0134
6,CGACUGUGACAAAAACAUGTT against Ly6m,inactive: 0.401
7,GGCUCUGUAUCGGAAGGCUTT against Zc3h7a,inactive: 0.817
8,GGUGUGUAUGGUGCUAGGATT against Olfr1507,active: -2.43
9,GGCAGCUGAUCAGAAAUCATT against Gabrg3,inactive: -1.13
10,GCUCUCGAUCAGGAUGUAATT against Vsx1,inactive: 0.153
11,GCAUACUCACGUCCACUCATT against Gfi1b,inactive: -1.52
12,GGUAUACUAACUUUUAAGGTT against Fmo1,inactive: -0.228
13,GGCCAUGAACUGGCAAAGCTT against Erbin,inactive: 0.472
14,GGAUUUUAAUGGGCUAUGCTT against Zfp114,inactive: 0.805
15,GGAAAAUGGAAUUUGAAGCTT against Ccnb2,inactive: -0.0768
16,UCUGUGGACCAGGAUUUGGTT against Pcsk1n,active: -2.8
17,GGCCCAGUUGUUAAACUCUTT against Pianp,inactive: 0.464
18,GGAAUAUGUGUGGACUAGATT against Tor3a,inactive: -0.265
19,GGUCUGGAGACUUUCAGUCTT against Hexa,inactive: 0.521
20,GGUCAUUGCAUCUGACAAGTT against Pcdha2,inactive: 0.109
21,CCUUUAGAGGAAUUCACUUTT against Npas2,inactive: -0.576
22,GGAUGAGAUCAACUUCCUCTT against Krt7,inactive: -0.6

# Laid out differently: results already given.
row | Sequence | z-score
8 | GGUGUGUAUGGUGCUAGGATT against Olfr1507 | active: -2.43
9 | GGCAGCUGAUCAGAAAUCATT against Gabrg3 | inactive: -1.13
10 | GCUCUCGAUCAGGAUGUAATT against Vsx1 | inactive: 0.153
17 | GGCCCAGUUGUUAAACUCUTT against Pianp | inactive: 0.464
20 | GGUCAUUGCAUCUGACAAGTT against Pcdha2 | inactive: 0.109

# Going on with the list:

row,Sequence,z-score
1,GCUAGGUGUUUGAAGCCUCTT against Mixl1,inactive: -0.834
2,GGAGAAAUAAGUGCAGGUGTT against Rhox2a,inactive: -0.622
3,GGAAACUGGUCCCUAUCAATT against Sp2,inactive: -0.27
4,GGCUCAGACCUGGAUACAUTT against Oas1e,active: -2.31
5,GCAUCAACAUCCAUCUAUCTT against Kctd8,inactive: 0.713
6,CCAUGCUCUAUCAAUGUUCTT against Sprr3,inactive: -0.691
7,CCUCCAUUGAUACUCAAGUTT against Pycr1,inactive: 0.0219
8,GGGCAAGUACUUCUCUAGCTT against Cdsn,inactive: 0.636
9,GUUCACACACGAAUUUGACTT against H2-Oa,active: -2.32
10,GGAGCUCUGGCACUUUGUCTT against Gramd1b,inactive: 0.37
11,GCCUCGAAUGCUAGACUUCTT against Faf1,inactive: -1.46
12,GGGUCUCUCAAAGAUCCUGTT against Zfp768,inactive: 0.75
13,GGAGCAUAUACAACUCAGCTT against Dis3l,inactive: 0.1
14,GCCCAGUACUCCGCUUACATT against Bhlhe23,active: -2.03
15,GGACUUGCUAGAUACGAUCTT against Edaradd,inactive: 0.175
16,GGGUUAGCCAGAGCUCUAATT against N4bp2l1,active: 3.03
17,GAGUGAUCUUCCACUUACGTT against Cracr2b,inactive: 1.82
18,GCGAUUGAUGAAUUUCGACTT against Atp9b,inactive: 0.616
19,GGAGAGCAGACAAAAAUGATT against Necab1,inactive: -0.675
20,GGUAAUGAAUGGACAAUGATT against 9130401M01Rik,inactive: -0.478
21,GGAGCAUUCACCUGUCUGUTT against Gdf9,inactive: -0.145
22,GCAGGUUCAUACGAUCCAGTT against Plekha3,inactive: -0.7

row,Sequence,z-score
1,CGACCUGUGGGUUAACCCATT against Tspyl2,inactive: -0.522
2,GGUGGUGAACUGUUUGACCTT against Pnck,inactive: -1.58
3,GGCAGGCAGAAGGCUUUUUTT against Olfr228,inactive: 1.07
4,GGAGUUACAUGGCUCUUGATT against Ptgdr2,inactive: -0.459
5,GGAAAGCAUGCAGUUCAUATT against Cyp4f13,inactive: 0.338
6,CGAGGAUACGUUUGCAUCUTT against Cipc,inactive: -0.676
7,GCUGCAUCAAAUCUUCCAUTT against Prl8a6,inactive: 0.771
8,GGCAAUGGCUUCGUAGUAUTT against Ltb4r2,inactive: -0.000654
9,CCAGUAUUAUCUAACAUCGTT against Pdk4,inactive: -0.626
10,GGACAAAAGACAAUCGAGATT against Parp2,inactive: -0.273
11,GCCAUGGAGCUCAUUUGGATT against Nup85,inactive: -0.225
12,GGAAGAAUGGAGCAGAGCUTT against Igdcc3,inactive: -0.858
13,GGAAGAGGAGUCCUACUCUTT against Pla2g12b,inactive: -1.14
14,GGUCUCUUGACUUCAGUACTT against Shc3,inactive: 0.76
15,GGAUGAAGAACUCAGAGUGTT against Slc66a2,inactive: -1.24
16,GGAAAGAAAGGGAACAAAATT against Ccdc34,inactive: 0.869
17,GCACUUAAUACUUUAUGUGTT against Iapp,inactive: -1.27
18,GGAAACCUGAUUAUCAUCATT against Olfr791,inactive: -0.337
19,GGCCUAAUUUCCUCUAAUATT against Padi1,inactive: 0.452

# — PubChem BioAssay AID1508600 (Functional Genomics Laboratory (NCATS/FGL), 2020)
